Values from PubChem BioAssay AID602196 (INSERM, 2012).

Screen: 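Knock-downs that protect lung cancer cells from cisplatin or sensitise them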
Cells: human A549 lung cancer cells
Reagent: siRNA pair against human genes
Timing: 48 h transfection before cisplatin; time from cisplatin to read-out not stated
Conditions: cisplatin at a dose killing half of control-siRNA cells; exact dose and duration not given
Measured: 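Shift in cisplatin death relative to control siRNA, from -50 (all cells die) to +50 (no cells die); siRNAs harmful on their own scored 0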
Direction: two-siRNA summed score (-2 to +2): higher = both siRNAs protect from cisplatin killing; -2 means both sensitise; mean protection from cisplatin (shift in death) and protection from cisplatin (shift in death), siRNA C and protection from cisplatin (shift in death), siRNA D: higher = protection from cisplatin killing
Hit rule: 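Each siRNA scores 0 if harmful alone by LDH or WST-1, otherwise +1 if it reduces and -1 if it increases cisplatin killing; a gene is active when both siRNAs agree (sum +2 or -2)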
Calls: active = both siRNAs shift cisplatin killing the same way; inactive = no consistent shift, or siRNA harmful alone
This is one part, drawn at random, of about 23,000 deposited reagents. Of all reagents, 455 (2%) got an active call. 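Active includes both protection and sensitisation; some change values fall well beyond the stated -50 to +50 range.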 The numbers tell different reagents against one gene apart. The record does not give: the amount of reagent.

no.	gene	reagent no.	two-siRNA summed score (-2 to +2)	mean protection from cisplatin (shift in death) (%)	protection from cisplatin (shift in death), siRNA C (%)	protection from cisplatin (shift in death), siRNA D (%)	activity call
1	CD180	1	0	8.6	7.2	10	inactive
2	FNDC9	1	0	-6.4	-2.3	-10.6	inactive
3	LOC402665	1	0	5.6	8.9	2.3	inactive
4	VASN	1	0	-0.8	-6.6	4.9	inactive
5	HSDL1	1	0	7.8	1.6	14	inactive
6	CEP120	1	0	6.6	1.6	11.5	inactive
7	LOC284898	1	1	20.6	27.7	13.5	inactive
8	PTPRVP	1	1	13.5	5	21.9	inactive
9	LOC441512	1	0	12.1	5.9	18.3	inactive
10	HMX3	1	1	14.8	6.2	23.4	inactive
11	KRT73	1	0	-1.3	-3.6	0.9	inactive
12	DNASE1L1	1	0	3.5	-13.8	20.8	inactive
13	LOC390916	1	1	8.8	8.6	8.9	inactive
14	SCNN1A	1	0	16.1	21.7	10.4	inactive
15	SGSM2	1	1	7.4	6.3	8.5	inactive
16	TET2	1	0	5.5	6.1	4.9	inactive
17	TET2	2	0	5.7	1.4	10.1	inactive
18	CBX8	1	1	18.8	26.7	10.9	inactive
19	TEKT5	1	0	2.3	1.1	3.6	inactive
20	TMEM35A	1	1	19.8	6	33.6	inactive
21	KRTAP3-2	1	0	15.1	18.1	12	inactive
22	SLC51A	1	1	8	11.2	4.8	inactive
23	LOC441433	1	0	24.2	45.2	3.2	inactive
24	C22orf15	1	0	2.2	1.2	3.3	inactive
25	PNPLA1	1	0	22.5	9.5	35.5	inactive
26	TMOD2	1	1	12.6	15	10.2	inactive
27	TOE1	1	1	6.1	-0.8	12.9	inactive
28	GTF2H4	1	-2	-27.9	-42.9	-13	active
29	HACL2	1	0	2.6	-21.6	26.8	inactive
30	CREG2	1	1	13.2	8.3	18.2	inactive
31	LOC388019	1	0	7.3	11	3.5	inactive
32	MYL10	1	0	5.6	4.4	6.9	inactive
33	JMJD4	1	0	-3.5	-4.7	-2.3	inactive
34	JOSD2	1	0	21.9	14.2	29.5	inactive
35	DBN1	1	0	8.1	13.2	3	inactive
36	RYK	1	1	-0.7	-11.5	10.2	inactive
37	GNG5	1	0	1.2	-24.7	27	inactive
38	SSB	1	0	-2.9	-8.1	2.3	inactive
39	OR3A3	1	-1	-12.6	-5.4	-19.7	inactive
40	KSR2	1	0	7	1.2	12.8	inactive
41	PLSCR1	1	-1	19	-10.7	48.7	inactive
42	ANKK1	1	0	-0.8	-8.7	7.1	inactive
43	LOC389310	1	0	11.4	22.7	0.1	inactive
44	TSPYL3	1	0	6.4	2.7	10.2	inactive
45	MMP14	1	-2	-28.5	-47.1	-9.9	active
46	KCTD9	1	0	7.2	5.1	9.3	inactive
47	RAB10	1	0	-0.5	0.9	-1.8	inactive
48	DDX17	1	0	1.4	3.1	-0.3	inactive
49	DIS3L2	1	1	15.8	10.2	21.5	inactive
50	ACADM	1	1	13.1	11.3	14.8	inactive
51	SLC25A48	1	-1	1.2	-18	20.4	inactive
52	FBXO39	1	0	-1.4	-14.5	11.7	inactive
53	LINC00305	1	0	11.9	4.1	19.6	inactive
54	FLJ14351	1	0	10.5	7.2	13.7	inactive
55	H3C4	1	0	25.3	41.1	9.6	inactive
56	NSUN5P2	1	0	9.1	13.4	4.8	inactive
57	PRKY	1	0	3.9	-2.3	10.2	inactive
